The list shows a part of the results. The data scatter; read single values as rough.

Compound in the first assay: ClCC(=O)N[C@@H]1CCCc2ccccc12
Put plainly: log2 mean competition ratio of IA-DTB cysteine labelling (DMSO/compound) (log2 ratio); higher = stronger cysteine engagement by compound. The settings on record: 50 µM; treatment time: 4 h; cell line lysate: HEK293T. As for the experimental part: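 IA-DTB competitive cysteine chemoproteomics in HEK293T RIPA lysate. Lysates were treated with compound 29 or 30 at 50 or 200 µM for 4 h, then IA-DTB (500 µM, 1 h), trypsin-digested, NeutrAvidin-enriched and analysed by diaPASEF. Competition ratio = intensity DMSO / intensity compound (n=4 treated, n=64 DMSO); binding: mean log2 CR ≥ 1 and p ≤ 0.05 plus QC filters. Target is the cysteine site.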
For CTSC C448 (UniProt P53634), the “log2 mean competition ratio” value was -0.39.

Take CSNK1G2 C54 (UniProt P78368): the “log2 mean competition ratio” value was determined as 0.0569.

As to DCUN1D4 C170 (UniProt Q92564), the “log2 mean competition ratio” value turned out to be 0.078.

On to CRNKL1 C745 (UniProt Q9BZJ0), for which the “log2 mean competition ratio” value is -0.0402.

For CTNNB1 C520 (UniProt P35222), the “log2 mean competition ratio” value was 0.0426.

As to DAXX C720 (UniProt Q9UER7), the “log2 mean competition ratio” value is 0.2.

On to DCAF1 C106 (UniProt Q9Y4B6), for which the “log2 mean competition ratio” value came out at 0.596.

In the case of CUL3 C522 (UniProt Q13618), the “log2 mean competition ratio” value is -0.023.

Consider DCTN6 C18 (UniProt O00399), for which the “log2 mean competition ratio” value came to 0.0728.

Take DDX5 C234 (UniProt P17844): the “log2 mean competition ratio” value was -0.2.

Turning to CTU2 C47 (UniProt Q2VPK5), the “log2 mean competition ratio” value was -0.13.

Turning to DDX41 C338 (UniProt Q9UJV9), the “log2 mean competition ratio” value amounted to 0.00306.

Turning to CSRP2 C25 (UniProt Q16527), the “log2 mean competition ratio” value is -0.266.

Regarding CZIB C102 (UniProt Q9NWV4), the “log2 mean competition ratio” value was -0.148.

As for CTTNBP2 C1595, the “log2 mean competition ratio” value was -0.0679.

As for CRBN C310 (UniProt Q96SW2), the “log2 mean competition ratio” value is -0.0834.

For the target CSK C411 (UniProt P41240), the “log2 mean competition ratio” value was found to be 0.0361.

For DCAF6 C593 (UniProt Q58WW2), the “log2 mean competition ratio” value was -0.0267.

Regarding DDX11 C267 (UniProt Q96FC9), the “log2 mean competition ratio” value was -0.35.

For the target DCAF1 C967 (UniProt Q9Y4B6), the “log2 mean competition ratio” value was -0.0246.

For the target DCAF15 C347 (UniProt Q66K64), the “log2 mean competition ratio” value is -0.191.

On to DDX3X C128 (UniProt O00571), for which the “log2 mean competition ratio” value was determined as 0.293.

For the target DDX3X C223 (UniProt O00571), the “log2 mean competition ratio” value is -0.0886.

Take CTBP1 C38: the “log2 mean competition ratio” value was -0.162.

Turning to CTSB C211 (UniProt P07858), the “log2 mean competition ratio” value was determined as 0.00786.

On to DDX39B C198, for which the “log2 mean competition ratio” value was -0.109.

Take CRYBG3 C1502 (UniProt Q68DQ2): the “log2 mean competition ratio” value is -0.24.

With CTPS2 C313 (UniProt Q9NRF8), the “log2 mean competition ratio” value is 0.113.

As to CTCF C155 (UniProt P49711), the “log2 mean competition ratio” value was determined as 0.218.

Consider DDX46 C377, for which the “log2 mean competition ratio” value was found to be 0.323.

As for CSNK1E C241 (UniProt P49674), the “log2 mean competition ratio” value amounted to 0.494.

With DDX5 C200 (UniProt P17844), the “log2 mean competition ratio” value was -0.308.

Regarding DCLRE1A C207, the “log2 mean competition ratio” value is -0.236.

For CTTNBP2NL C76 (UniProt Q9P2B4), the “log2 mean competition ratio” value is -0.251.

As to CSE1L C85 (UniProt P55060), the “log2 mean competition ratio” value was -0.256.

As to CRYL1 C182 (UniProt Q9Y2S2), the “log2 mean competition ratio” value is -0.166.

Consider DDX51 C187 (UniProt Q8N8A6), for which the “log2 mean competition ratio” value came to 0.245.

Staying with this assay, now noted: 200 µM; treatment time: 4 h; cell line lysate: HEK293T.
As for CTSC C448 (UniProt P53634), the “log2 mean competition ratio” value is -0.0856.

In the case of CSNK1G2 C54 (UniProt P78368), the “log2 mean competition ratio” value is 0.0385.

For the target DCUN1D4 C170 (UniProt Q92564), the “log2 mean competition ratio” value is 0.0117.

As to CRNKL1 C745 (UniProt Q9BZJ0), the “log2 mean competition ratio” value was found to be 0.19.

On to CTNNB1 C520 (UniProt P35222), for which the “log2 mean competition ratio” value came out at 0.0632.

As for DAXX C720 (UniProt Q9UER7), the “log2 mean competition ratio” value was 0.0542.

For DCAF1 C106 (UniProt Q9Y4B6), the “log2 mean competition ratio” value was -0.109.

Consider CUL3 C522 (UniProt Q13618), for which the “log2 mean competition ratio” value is -0.507.

With DCTN6 C18 (UniProt O00399), the “log2 mean competition ratio” value worked out at 0.274.

For the target DDX5 C234 (UniProt P17844), the “log2 mean competition ratio” value was -0.207.

With CTU2 C47 (UniProt Q2VPK5), the “log2 mean competition ratio” value came out at 0.131.

With DDX41 C338 (UniProt Q9UJV9), the “log2 mean competition ratio” value stood at 0.143.

Turning to CSRP2 C25 (UniProt Q16527), the “log2 mean competition ratio” value was -0.126.

Take CZIB C102 (UniProt Q9NWV4): the “log2 mean competition ratio” value is -0.258.

As for CTTNBP2 C1595, the “log2 mean competition ratio” value was 0.00414.

As for CRBN C310 (UniProt Q96SW2), the “log2 mean competition ratio” value is -0.181.

Turning to CSK C411 (UniProt P41240), the “log2 mean competition ratio” value is 0.137.

DCAF6 C593 (UniProt Q58WW2): the “log2 mean competition ratio” value is 0.0506.

On to DDX11 C267 (UniProt Q96FC9), for which the “log2 mean competition ratio” value came to 0.0947.

On to DCAF1 C967 (UniProt Q9Y4B6), for which the “log2 mean competition ratio” value was 0.148.

As for DCAF15 C347 (UniProt Q66K64), the “log2 mean competition ratio” value was 0.319.

As for DDX3X C128 (UniProt O00571), the “log2 mean competition ratio” value was determined as 0.154.

Take DDX3X C223 (UniProt O00571): the “log2 mean competition ratio” value is -0.136.

With CTBP1 C38, the “log2 mean competition ratio” value came out at 0.0699.

Regarding CTSB C211 (UniProt P07858), the “log2 mean competition ratio” value turned out to be 0.131.

Consider DDX39B C198, for which the “log2 mean competition ratio” value is 0.0691.

CRYBG3 C1502 (UniProt Q68DQ2): the “log2 mean competition ratio” value was -0.0972.

As for CTPS2 C313 (UniProt Q9NRF8), the “log2 mean competition ratio” value is -0.164.

With CTCF C155 (UniProt P49711), the “log2 mean competition ratio” value turned out to be 0.145.

As for DDX46 C377, the “log2 mean competition ratio” value is 0.153.

For CSNK1E C241 (UniProt P49674), the “log2 mean competition ratio” value amounted to 0.218.

DDX5 C200 (UniProt P17844): the “log2 mean competition ratio” value was -0.347.

In the case of DCLRE1A C207, the “log2 mean competition ratio” value amounted to 0.0278.

As to CTTNBP2NL C76 (UniProt Q9P2B4), the “log2 mean competition ratio” value is 0.136.

In the case of CSE1L C85 (UniProt P55060), the “log2 mean competition ratio” value was determined as 0.00606.

As for CRYL1 C182 (UniProt Q9Y2S2), the “log2 mean competition ratio” value came out at 0.137.

For DDX51 C187 (UniProt Q8N8A6), the “log2 mean competition ratio” value turned out to be 0.0517.

The values above are taken from the supplement of paper PMC11732987, “Enantioselective OTUD7B fragment discovery through chemoproteomics screening and high-throughput optimisation” (Communications Chemistry, 2025).
